These are yes or no findings as the source states them, for the method shown. In cells and extracts the contact can be indirect. Some binding calls cover weakened binding; strength is not graded here.
Molecular target: LRRC8A‐Cerulean (UniProt Q8IWT6)
Assay: FRET or BRET; sensitised emission inter-subunit FRET (cFRET) in living HeLa cells co-transfected with LRRC8A-Cerulean (donor) and LRRC8E-Venus (acceptor); room temperature; isotonic solution, then hypotonic solution, S1P, SEW-2871 or blockers

By UniProt entry, the sequences of proteins in these tests, tags left out.
UniProt Q8IWT6: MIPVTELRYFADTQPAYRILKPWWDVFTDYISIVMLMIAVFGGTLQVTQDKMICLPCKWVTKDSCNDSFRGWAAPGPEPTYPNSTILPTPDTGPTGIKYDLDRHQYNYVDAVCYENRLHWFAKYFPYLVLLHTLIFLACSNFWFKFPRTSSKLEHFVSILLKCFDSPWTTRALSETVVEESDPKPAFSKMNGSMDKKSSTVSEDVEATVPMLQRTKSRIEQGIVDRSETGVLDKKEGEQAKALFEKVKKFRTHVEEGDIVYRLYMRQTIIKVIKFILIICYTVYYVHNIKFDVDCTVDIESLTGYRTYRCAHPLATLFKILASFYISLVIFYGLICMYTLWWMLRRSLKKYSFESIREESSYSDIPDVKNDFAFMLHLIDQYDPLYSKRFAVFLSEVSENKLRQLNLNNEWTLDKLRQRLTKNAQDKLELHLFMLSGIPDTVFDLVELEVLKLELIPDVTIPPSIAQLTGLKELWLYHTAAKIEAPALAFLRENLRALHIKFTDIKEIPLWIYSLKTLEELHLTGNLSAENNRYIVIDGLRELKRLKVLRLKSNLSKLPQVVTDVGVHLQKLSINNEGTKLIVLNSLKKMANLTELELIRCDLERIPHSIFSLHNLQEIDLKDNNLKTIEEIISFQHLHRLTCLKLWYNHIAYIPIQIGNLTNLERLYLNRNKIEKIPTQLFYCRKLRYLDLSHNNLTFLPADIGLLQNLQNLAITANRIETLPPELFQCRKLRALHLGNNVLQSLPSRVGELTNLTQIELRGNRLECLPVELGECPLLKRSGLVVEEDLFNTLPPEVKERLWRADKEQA
UniProt Q6NSJ5: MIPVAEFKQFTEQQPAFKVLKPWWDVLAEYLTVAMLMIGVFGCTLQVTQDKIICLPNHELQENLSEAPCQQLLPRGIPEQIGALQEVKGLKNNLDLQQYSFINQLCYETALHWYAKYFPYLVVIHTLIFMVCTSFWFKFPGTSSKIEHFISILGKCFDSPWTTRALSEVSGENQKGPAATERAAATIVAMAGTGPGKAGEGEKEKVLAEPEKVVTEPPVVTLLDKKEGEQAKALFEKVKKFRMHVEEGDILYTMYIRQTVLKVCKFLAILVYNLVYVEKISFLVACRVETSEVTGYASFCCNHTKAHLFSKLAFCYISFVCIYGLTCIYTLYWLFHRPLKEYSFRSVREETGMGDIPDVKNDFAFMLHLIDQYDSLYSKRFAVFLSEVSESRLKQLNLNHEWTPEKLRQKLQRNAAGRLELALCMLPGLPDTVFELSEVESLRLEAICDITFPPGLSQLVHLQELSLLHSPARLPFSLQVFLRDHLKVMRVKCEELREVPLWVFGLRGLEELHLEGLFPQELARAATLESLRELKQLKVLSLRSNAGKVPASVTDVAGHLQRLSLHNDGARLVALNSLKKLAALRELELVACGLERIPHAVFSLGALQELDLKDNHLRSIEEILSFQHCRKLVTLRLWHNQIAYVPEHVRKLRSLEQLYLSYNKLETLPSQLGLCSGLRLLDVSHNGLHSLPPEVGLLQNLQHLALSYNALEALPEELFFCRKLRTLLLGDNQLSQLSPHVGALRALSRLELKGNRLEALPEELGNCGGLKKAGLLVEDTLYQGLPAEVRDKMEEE

Q: Which binding does the source give for “LRRC8E‐Venus (from UniProt Q6NSJ5 1-796)” here?
A: binds

Source: paper PMC12333907
